Screen size: about 46,000 compounds; about 900 (2%) were called active. The inconclusive results got no clear call from the source; some entries with a clear call stand among them for comparison. Rule as the data show it: active = ROS induction above about 79% (passing the limit was not always enough); inconclusive = no clear call, values can overlap the other calls.
Assay: ROS inducers in U2OS cancer cells, primary screen, cell-based, H2DCF-DA fluorescence (AID 624156);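 also: 0% = DMSO vehicle median and 100% = reference compound median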
Settings: at 10 µM, stronger effect = higher value

Q: For `C[C@@H]1CCCCO[C@@H](CN(C)C(=O)Nc2cccc3ccccc23)[C@@H](C)CN([C@H](C)CO)C(=O)c2cc(NC(=O)c3ccccc3)ccc2O1`, which ROS induction (% of piperlongumine) is on record?
A: inconclusive: 93.9%

Q: With `COc1ccc(C(=O)NC(=S)Nc2ccc3[nH]c(=O)[nH]c3c2)cc1OC` as the molecule, how does the ROS induction (% of piperlongumine) read?
A: inconclusive: 82.5%

Q: Which ROS induction (% of piperlongumine) does the source give for `C[C@@H]1CN([C@@H](C)CO)C(=O)c2cccc(NC(=O)Nc3ccccc3)c2O[C@H]1CN(C)Cc1ccc(Cl)c(Cl)c1` here?
A: inconclusive: 80.8%

Q: Which ROS induction (% of piperlongumine) does the source give for `CCn1c(SCC(=O)N2c3ccccc3Sc3ccccc32)nnc1-c1cccc(Cl)c1` here?
A: inconclusive: 91%

Q: With `Cc1noc(C)c1S(=O)(=O)N(C)C[C@H]1Oc2ccc(NC(=O)Nc3ccccc3)cc2CC(=O)N([C@H](C)CO)C[C@H]1C` as the molecule, how does the ROS induction (% of piperlongumine) read?
A: inconclusive: 76.2%

Q: With `Cc1ccc(N/C(N)=N/c2nc(C)cc(=O)[nH]2)c(C)c1` as the molecule, how does the ROS induction (% of piperlongumine) read?
A: inactive: -8.29%

Q: With `O=S(=O)(N[C@@H]1CCN(Cc2ccc(OCCO)cc2)C1)c1cccc2cccnc12` as the molecule, how does the ROS induction (% of piperlongumine) read?
A: inactive: 6.8%

Q: With `Cc1cc(=O)n2c3ccccc3n(CC(O)CN3CCN(CCO)CC3)c2c1C#N` (stereo unspecified) as the molecule, how does the ROS induction (% of piperlongumine) read?
A: inconclusive: 82.6%

Q: Which ROS induction (% of piperlongumine) does the source give for `COc1ccc(/C=C/C(=O)NC(C)(C)C)cc1` here?
A: inconclusive: 85%

Q: Which ROS induction (% of piperlongumine) does the source give for `COc1ccc(/C=C2\C(=O)c3ccccc3OC2c2ccccc2)cc1` (stereo unspecified) here?
A: inconclusive: 88.2%

Q: With `CCc1ccc(-n2c(C)nnc2SCC(=O)Nc2ccc(OC)cc2)cc1` as the molecule, how does the ROS induction (% of piperlongumine) read?
A: inactive: -2.16%

Q: Which ROS induction (% of piperlongumine) does the source give for `O=S(=O)(c1ccc(Cl)c(Cl)c1)N1CCN(Cc2ccc(OCCO)cc2)CC1` here?
A: inconclusive: 113%

Q: For `Cc1noc(C)c1NC(=O)N(C)C[C@H]1Oc2ccc(NC(=O)NC(C)C)cc2CC(=O)N([C@@H](C)CO)C[C@@H]1C`, which ROS induction (% of piperlongumine) is on record?
A: inconclusive: 80.8%

Q: Which ROS induction (% of piperlongumine) does the source give for `CCCCn1c2ccccc2c2nc3ccccc3nc21` here?
A: inconclusive: 87.4%

Q: Which ROS induction (% of piperlongumine) does the source give for `O=c1n(Cc2ccccc2)c2ccccc2n1Cc1ccccc1` here?
A: inconclusive: 76%

Q: With `C[C@@H]1CN([C@@H](C)CO)C(=O)Cc2cc(NC(=O)NC3CCCCC3)ccc2O[C@@H]1CN(C)C(=O)Nc1ccc(F)cc1` as the molecule, how does the ROS induction (% of piperlongumine) read?
A: inactive: -4%

Q: With `C[C@H]1CN([C@@H](C)CO)C(=O)Cc2cc(NS(=O)(=O)c3cccs3)ccc2O[C@@H]1CN(C)Cc1ccc(Oc2ccccc2)cc1` as the molecule, how does the ROS induction (% of piperlongumine) read?
A: active: 92.6%

Q: For `C[C@@H]1CN([C@H](C)CO)C(=O)Cc2cc(NC(=O)Cc3cn(C)c4ccccc34)ccc2O[C@@H]1CN(C)Cc1ccncc1`, which ROS induction (% of piperlongumine) is on record?
A: inactive: 15%

Q: For `COC(=O)/C=C1/C(=O)N/C(=N\c2nc(C)cc(C)n2)N1c1cccc(C)c1`, which ROS induction (% of piperlongumine) is on record?
A: active: 103%

Q: With `CC(=O)Nc1ccccc1NC(=O)c1ccco1` as the molecule, how does the ROS induction (% of piperlongumine) read?
A: inactive: -8.24%

Q: For `COc1ccc2c(c1)c(=O)oc1cc(OC(C)C)ccc12`, which ROS induction (% of piperlongumine) is on record?
A: active: 114%

Q: With `CC1=C(C/C=N/NC(=O)c2cccc(C(=O)NO)c2)C(C)(C)CCC1` as the molecule, how does the ROS induction (% of piperlongumine) read?
A: inactive: -5.44%

Q: Which ROS induction (% of piperlongumine) does the source give for `C[C@@H]1CN([C@H](C)CO)C(=O)c2cc(NS(=O)(=O)c3cccs3)ccc2O[C@H]1CN(C)CC1CC1` here?
A: inconclusive: 92.7%

Q: With `C[C@H]1CN([C@@H](C)CO)C(=O)c2cccc(NC(=O)c3ccc(-c4nccs4)cc3)c2O[C@@H]1CN(C)Cc1ccc(Cl)c(Cl)c1` as the molecule, how does the ROS induction (% of piperlongumine) read?
A: inconclusive: 84.1%

Q: Which ROS induction (% of piperlongumine) does the source give for `CCN1CCN(c2c(Cl)cccc2NC(=O)c2ccc(-c3ccccc3[N+](=O)[O-])o2)CC1` here?
A: inconclusive: 85.5%

Q: Which ROS induction (% of piperlongumine) does the source give for `CN1CCN(c2ccccc2NS(=O)(=O)c2ccc3c(c2)SCC(=O)N3)CC1` here?
A: inactive: 6.12%

Q: For `C=C(C)Cc1c(C)nc(-c2ccc(Cl)cc2)nc1OC(=S)N(CC)CC`, which ROS induction (% of piperlongumine) is on record?
A: inconclusive: 96.2%

Q: For `C[C@@H]1CN([C@@H](C)CO)C(=O)c2cc(NC(=O)CCCCCC(=O)Nc3ccccc3N)ccc2O[C@@H]1CN(C)S(=O)(=O)c1cccs1`, which ROS induction (% of piperlongumine) is on record?
A: inactive: -5.21%

Q: For `C[C@@H]1CN([C@H](C)CO)C(=O)c2cccc(NS(=O)(=O)c3ccccc3)c2O[C@@H]1CN(C)Cc1ccc(Oc2ccccc2)cc1`, which ROS induction (% of piperlongumine) is on record?
A: inconclusive: 77.2%

Q: With `C[C@@H]1CN([C@@H](C)CO)C(=O)c2cccc(NC(=O)CCCCCC(=O)Nc3ccccc3N)c2O[C@@H]1CN(C)Cc1ccc(Cl)c(Cl)c1` as the molecule, how does the ROS induction (% of piperlongumine) read?
A: inconclusive: 107%

Q: With `CC(C)(C)Nc1nc(Cl)nc(N(C#N)CN2C(=O)c3ccccc3S2(=O)=O)n1` as the molecule, how does the ROS induction (% of piperlongumine) read?
A: active: 93.8%

Q: For `CCc1ccccc1NC(=O)C(Cc1ccccc1)N1C(=O)c2ccccc2C1=O` (stereo unspecified), which ROS induction (% of piperlongumine) is on record?
A: inactive: -11.9%

Q: Which ROS induction (% of piperlongumine) does the source give for `COc1cc(OC)cc(C(=O)N/C(N)=N/c2nc3ccccc3s2)c1` here?
A: inconclusive: 80.2%

Q: With `CCOc1c(O)ccc(C(c2c[nH]c3ccccc23)c2c[nH]c3ccccc23)c1[N+](=O)[O-]` as the molecule, how does the ROS induction (% of piperlongumine) read?
A: inactive: 1.04%

Q: With `C[C@H](CO)N1C[C@H](C)[C@H](CN(C)C(=O)Nc2ccc(C(F)(F)F)cc2)Oc2ccc(NC(=O)Nc3ccccc3)cc2C1=O` as the molecule, how does the ROS induction (% of piperlongumine) read?
A: active: 84%

Q: For `Cc1ccc(S(=O)(=O)Nc2ccc3c(c2)C(=O)N([C@H](C)CO)C[C@H](C)[C@@H](CN(C)C)O3)cc1`, which ROS induction (% of piperlongumine) is on record?
A: inactive: -10.4%

Q: With `COc1ccc(-n2cc(-c3ccccc3)c3c(N4CCCCC4)ncnc32)cc1` as the molecule, how does the ROS induction (% of piperlongumine) read?
A: active: 116%

Q: Which ROS induction (% of piperlongumine) does the source give for `CCOC(=O)c1nnn2c1nc(N(Cc1ccccc1)Cc1ccccc1)c1ccccc12` here?
A: active: 173%

Q: Which ROS induction (% of piperlongumine) does the source give for `O=C(CN1C(=O)S/C(=C\C=C\c2ccccc2)C1=O)Nc1cccc(O)c1` here?
A: inconclusive: 93.1%

Q: Which ROS induction (% of piperlongumine) does the source give for `COc1ccc(NC(=O)N(C)C[C@H]2Oc3ccc(NC(=O)CCCCCC(=O)Nc4ccccc4N)cc3CC(=O)N([C@@H](C)CO)C[C@H]2C)cc1` here?
A: inactive: 46.6%

Q: Which ROS induction (% of piperlongumine) does the source give for `Cn1ccnc1SCC(=O)Nc1ccc2c(c1)COC2=O` here?
A: inconclusive: 653%

Q: Which ROS induction (% of piperlongumine) does the source give for `COc1ccc(NC(=O)N(C)C[C@@H]2Oc3ncc(-c4cccc(OC)c4)cc3C(=O)N([C@H](C)CO)C[C@@H]2C)cc1` here?
A: inactive: 69.6%

Q: With `c1ccc(CSc2ncnc3c2oc2ccccc23)cc1` as the molecule, how does the ROS induction (% of piperlongumine) read?
A: inconclusive: 76.8%

Q: With `C=C1C(=O)O[C@H]2[C@H]1C[C@H](OC(=O)/C(C)=C\C)/C(C)=C\CC[C@@]1(C)O[C@@H]21` as the molecule, how does the ROS induction (% of piperlongumine) read?
A: active: 139%

Q: For `NC(=O)CSc1nc2c(c(C(F)(F)F)n1)CCc1ccccc1-2`, which ROS induction (% of piperlongumine) is on record?
A: inactive: 40.5%

Q: For `CC1C/C(=C/c2cccn2C)C(=O)/C(=C/c2cccn2C)C1` (stereo unspecified), which ROS induction (% of piperlongumine) is on record?
A: active: 261%

From PubChem BioAssay AID624156 (Broad Institute, 2012)
